Test results taken from PMC9509381.
Results are given in words; binding and its absence hold for the method and conditions named. Binding seen in cells or lysates may run through a third protein. Some results given as binding are weak or reduced against the parent protein; the word gives no strength.

Protein sequences, listed by entry. Tags and fused reporters are not part of them.
UniProt Q9Y265: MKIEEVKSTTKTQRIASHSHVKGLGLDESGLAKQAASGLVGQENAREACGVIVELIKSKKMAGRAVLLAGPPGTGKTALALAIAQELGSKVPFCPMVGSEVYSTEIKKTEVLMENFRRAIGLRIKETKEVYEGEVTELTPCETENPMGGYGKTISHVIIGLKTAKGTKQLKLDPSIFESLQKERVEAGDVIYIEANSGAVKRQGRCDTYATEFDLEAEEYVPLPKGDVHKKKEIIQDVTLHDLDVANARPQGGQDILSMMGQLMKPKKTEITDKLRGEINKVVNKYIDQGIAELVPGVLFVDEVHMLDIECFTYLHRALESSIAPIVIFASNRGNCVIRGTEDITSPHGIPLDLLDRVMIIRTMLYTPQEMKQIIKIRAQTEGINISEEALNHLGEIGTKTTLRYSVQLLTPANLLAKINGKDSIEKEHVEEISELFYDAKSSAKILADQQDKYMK
UniProt Q9UJU2: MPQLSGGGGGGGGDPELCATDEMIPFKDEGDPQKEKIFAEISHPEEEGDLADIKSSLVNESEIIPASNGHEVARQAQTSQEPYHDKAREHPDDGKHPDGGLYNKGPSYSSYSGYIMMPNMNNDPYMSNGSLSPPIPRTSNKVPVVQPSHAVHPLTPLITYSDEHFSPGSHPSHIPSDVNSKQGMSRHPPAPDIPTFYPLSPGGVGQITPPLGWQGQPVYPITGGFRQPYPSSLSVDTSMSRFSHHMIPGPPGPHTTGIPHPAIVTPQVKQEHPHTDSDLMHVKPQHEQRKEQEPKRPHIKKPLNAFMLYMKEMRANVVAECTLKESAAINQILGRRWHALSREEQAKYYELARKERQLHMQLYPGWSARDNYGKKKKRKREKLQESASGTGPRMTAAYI

Molecular target: Pontin (flag-tagged) (human) (UniProt Q9Y265)
Test: co-IP; cell extracts immunoprecipitated with 2 ug mouse anti-flag tag antibody for 4-6 h, then protein A/G agarose beads overnight; washed, SDS-PAGE, immunoblot; U87MG cells

Substance	binding
HA-tagged LEF1 (from UniProt Q9UJU2 1-399)	binds
endogenous LEF1 (from UniProt Q9UJU2 1-399)	binds
